Drawing on publication PMC11058089, this text covers binding for 2 substances.

Protein sequences, listed by entry. Tags and fused reporters are not part of them.
UniProt P08050: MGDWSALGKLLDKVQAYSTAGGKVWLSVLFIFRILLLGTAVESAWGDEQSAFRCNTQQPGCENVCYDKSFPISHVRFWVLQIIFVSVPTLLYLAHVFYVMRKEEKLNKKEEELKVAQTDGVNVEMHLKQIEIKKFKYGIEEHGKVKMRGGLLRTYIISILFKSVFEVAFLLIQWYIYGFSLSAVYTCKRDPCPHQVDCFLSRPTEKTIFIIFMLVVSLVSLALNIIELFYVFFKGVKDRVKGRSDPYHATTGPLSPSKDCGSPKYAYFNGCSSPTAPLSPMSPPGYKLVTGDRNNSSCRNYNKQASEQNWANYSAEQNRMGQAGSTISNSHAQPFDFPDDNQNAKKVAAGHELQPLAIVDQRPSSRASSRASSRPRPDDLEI
UniProt O95377: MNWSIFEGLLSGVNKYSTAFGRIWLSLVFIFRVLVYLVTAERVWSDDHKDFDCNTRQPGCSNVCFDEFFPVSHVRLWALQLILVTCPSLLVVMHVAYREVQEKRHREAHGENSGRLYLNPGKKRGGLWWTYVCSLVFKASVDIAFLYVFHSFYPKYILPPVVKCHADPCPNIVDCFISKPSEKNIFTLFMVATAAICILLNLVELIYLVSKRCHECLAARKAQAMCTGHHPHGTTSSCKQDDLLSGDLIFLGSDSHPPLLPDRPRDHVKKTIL

Results are given in words; binding and its absence hold for the method and conditions named. In cells and extracts the contact can be indirect. Some entries that bind do so weakly or less than the wild type.

The target in assay [1] is endogenous Cx43 of rat epidermal keratinocytes (rat (endogenous in REKs)) (UniProt P08050). The assay is described as follows: co-IP; REKs expressing Cx31.1–FLAG, lysed 24 h after transfection in IP buffer (10 mM Tris-HCl pH 7.4, 150 mM NaCl, 1 mM EDTA, 1 mM EGTA, 0.5% NP-40, 1% Triton X-100); IP with rabbit anti-Cx43 on protein G magnetic beads, 1000 μg lysate, 30 min at room temperature; blot for FLAG.

Assay [2] deals with Cx31.1–FLAG (human Cx31.1, from pCMV6-Cx31.1-Myc-DDK) (human) (UniProt O95377). The assay is described as follows: co-IP; REKs expressing Cx31.1–FLAG, lysed 24 h after transfection in IP buffer (10 mM Tris-HCl pH 7.4, 150 mM NaCl, 1 mM EDTA, 1 mM EGTA, 0.5% NP-40, 1% Triton X-100); IP with rabbit anti-FLAG on protein G magnetic beads, 1000 μg lysate, 30 min at room temperature; blot for Cx43.

As for “Cx31.1–FLAG (human Cx31.1, from pCMV6-Cx31.1-Myc-DDK) (from UniProt O95377 1-273)”, the binding result in assay [1] is “binds”.

Turning to “endogenous Cx43 of rat epidermal keratinocytes (from UniProt P08050 1-382)”, in assay [2], the binding result is recorded as “binds”.
